How the values were obtained:
[1] = general procedure: Fmoc solid-phase peptide synthesis; Rink amide MBHA resin; HBTU/NMM (Tribute; DIC/HOBt for cysteine); HATU/DIPEA or DIC/HOBt (433A); DIC/HO; conditions: whole synthesis, scale 1.77 mmol, hydrochloride salt
[2] = general procedure: Fmoc solid-phase peptide synthesis; Fmoc-Rink amide MBHA resin; Fmoc-Rink amide ChemMatrix resin; HBTU/NMM (Tribute; DIC/HOBt for cysteine); HATU/DIPEA or DIC/HOBt (433A); DIC/HO; conditions: whole synthesis; for final HPLC purity: reverse-phase analytical HPLC
[3] = general procedure: Fmoc solid-phase peptide synthesis; Fmoc-Rink amide MBHA resin; HBTU/NMM (Tribute; DIC/HOBt for cysteine); HATU/DIPEA or DIC/HOBt (433A); DIC/HO; conditions: whole synthesis, overall based on 89.6% peptide content, scale 1.95 mmol, hydrochloride salt
[4] = Fmoc solid-phase peptide synthesis; Fmoc-Rink amide MBHA resin; HBTU/NMM (Tribute; DIC/HOBt for cysteine); HATU/DIPEA or DIC/HOBt (433A); DIC/HO; conditions: whole synthesis, scale 1.95 mmol, hydrochloride salt
[5] = Fmoc solid-phase peptide synthesis; Rink Amide MBHA resin; HBTU/NMM (Tribute; DIC/HOBt for cysteine); HATU/DIPEA or DIC/HOBt (433A); DIC/HO; conditions: whole synthesis, scale 0.15 mmol, TFA salt
[6] = general procedure: Fmoc solid-phase peptide synthesis; Rink Amide MBHA resin; HBTU/NMM (Tribute; DIC/HOBt for cysteine); HATU/DIPEA or DIC/HOBt (433A); DIC/HO; conditions: whole synthesis, overall yield based on 80% estimated peptide content, scale 0.15 mmol, trifluoroacetate or hydrochloride salts
[7] = general procedure: Fmoc solid-phase peptide synthesis; Fmoc-Rink amide Chem Matrix resin; HBTU/NMM (Tribute; DIC/HOBt for cysteine); HATU/DIPEA or DIC/HOBt (433A); DIC/HO; conditions: whole synthesis, scale 3.5 mmol, TFA salt
[8] = trifluoroacetate or hydrochloride salts

Substance: Picolinoyl(3,5-F2)-D-Val-Tyr-c(Cys-Orn(iPr)-Asp-Val-Gly-Pro-Phe-Cys)-3Pal-NH2
- isolated mass [1]: 583 mg
- isolated yield ([2]; overall based on 87.3% peptide content and 98.8% purity, scale 1.77 mmol, trifluoroacetate or hydrochloride salts): 20%
- final HPLC purity [2, 8]: 98.8%

Substance: Oxazole-2-carbonyl-D-Val-Phe(2-Cbm)-c(Cys-Orn(iPr)-Asp-Val-Gly-Pro-Phe-Cys)-3Pal-NH2
- isolated yield [3]: 32.3%
- final HPLC purity ([2]; hydrochloride salt): 90.7%
- isolated mass [4]: 1009.8 mg

Substance: Oxazole-2-carbonyl-D-Val-Phe(2-Cbm)-c(Cys-Orn(iPr)-Asp-Val-Gly-Pro-3Pal-Cys)-3Pal-NH2
- isolated mass [5]: 80.2 mg
- final HPLC purity [2, 8]: 96.8%
- isolated yield [6]: 30%

Substance: Oxazole-2-carbonyl-D-Val-Phe(2-Cbm)-c(Cys-Orn(iPr)-Asp-Val-Gly-Dhp-Phe(3-Cbm)-Cys)-3Pal-NH2
- isolated mass [7]: 116.2 mg
- isolated yield ([2]; overall based on 78.5% peptide content, scale 3.5 mmol, trifluoroacetate or hydrochloride salts): 14.1%
- final HPLC purity [2, 8]: 98.3%
